In the supplement of paper PMC12067093, “Discovery and optimisation of a covalent ligand for TRIM25 and its application to targeted protein ubiquitination” (Chemical Science, 2025):
This is one part of the list.

The chains behind the UniProt entries cited, without tags or fusion partners. Where a name states a change or a piece, a line headed by the entry shows the natural chain unless it says otherwise.
UniProt Q15652: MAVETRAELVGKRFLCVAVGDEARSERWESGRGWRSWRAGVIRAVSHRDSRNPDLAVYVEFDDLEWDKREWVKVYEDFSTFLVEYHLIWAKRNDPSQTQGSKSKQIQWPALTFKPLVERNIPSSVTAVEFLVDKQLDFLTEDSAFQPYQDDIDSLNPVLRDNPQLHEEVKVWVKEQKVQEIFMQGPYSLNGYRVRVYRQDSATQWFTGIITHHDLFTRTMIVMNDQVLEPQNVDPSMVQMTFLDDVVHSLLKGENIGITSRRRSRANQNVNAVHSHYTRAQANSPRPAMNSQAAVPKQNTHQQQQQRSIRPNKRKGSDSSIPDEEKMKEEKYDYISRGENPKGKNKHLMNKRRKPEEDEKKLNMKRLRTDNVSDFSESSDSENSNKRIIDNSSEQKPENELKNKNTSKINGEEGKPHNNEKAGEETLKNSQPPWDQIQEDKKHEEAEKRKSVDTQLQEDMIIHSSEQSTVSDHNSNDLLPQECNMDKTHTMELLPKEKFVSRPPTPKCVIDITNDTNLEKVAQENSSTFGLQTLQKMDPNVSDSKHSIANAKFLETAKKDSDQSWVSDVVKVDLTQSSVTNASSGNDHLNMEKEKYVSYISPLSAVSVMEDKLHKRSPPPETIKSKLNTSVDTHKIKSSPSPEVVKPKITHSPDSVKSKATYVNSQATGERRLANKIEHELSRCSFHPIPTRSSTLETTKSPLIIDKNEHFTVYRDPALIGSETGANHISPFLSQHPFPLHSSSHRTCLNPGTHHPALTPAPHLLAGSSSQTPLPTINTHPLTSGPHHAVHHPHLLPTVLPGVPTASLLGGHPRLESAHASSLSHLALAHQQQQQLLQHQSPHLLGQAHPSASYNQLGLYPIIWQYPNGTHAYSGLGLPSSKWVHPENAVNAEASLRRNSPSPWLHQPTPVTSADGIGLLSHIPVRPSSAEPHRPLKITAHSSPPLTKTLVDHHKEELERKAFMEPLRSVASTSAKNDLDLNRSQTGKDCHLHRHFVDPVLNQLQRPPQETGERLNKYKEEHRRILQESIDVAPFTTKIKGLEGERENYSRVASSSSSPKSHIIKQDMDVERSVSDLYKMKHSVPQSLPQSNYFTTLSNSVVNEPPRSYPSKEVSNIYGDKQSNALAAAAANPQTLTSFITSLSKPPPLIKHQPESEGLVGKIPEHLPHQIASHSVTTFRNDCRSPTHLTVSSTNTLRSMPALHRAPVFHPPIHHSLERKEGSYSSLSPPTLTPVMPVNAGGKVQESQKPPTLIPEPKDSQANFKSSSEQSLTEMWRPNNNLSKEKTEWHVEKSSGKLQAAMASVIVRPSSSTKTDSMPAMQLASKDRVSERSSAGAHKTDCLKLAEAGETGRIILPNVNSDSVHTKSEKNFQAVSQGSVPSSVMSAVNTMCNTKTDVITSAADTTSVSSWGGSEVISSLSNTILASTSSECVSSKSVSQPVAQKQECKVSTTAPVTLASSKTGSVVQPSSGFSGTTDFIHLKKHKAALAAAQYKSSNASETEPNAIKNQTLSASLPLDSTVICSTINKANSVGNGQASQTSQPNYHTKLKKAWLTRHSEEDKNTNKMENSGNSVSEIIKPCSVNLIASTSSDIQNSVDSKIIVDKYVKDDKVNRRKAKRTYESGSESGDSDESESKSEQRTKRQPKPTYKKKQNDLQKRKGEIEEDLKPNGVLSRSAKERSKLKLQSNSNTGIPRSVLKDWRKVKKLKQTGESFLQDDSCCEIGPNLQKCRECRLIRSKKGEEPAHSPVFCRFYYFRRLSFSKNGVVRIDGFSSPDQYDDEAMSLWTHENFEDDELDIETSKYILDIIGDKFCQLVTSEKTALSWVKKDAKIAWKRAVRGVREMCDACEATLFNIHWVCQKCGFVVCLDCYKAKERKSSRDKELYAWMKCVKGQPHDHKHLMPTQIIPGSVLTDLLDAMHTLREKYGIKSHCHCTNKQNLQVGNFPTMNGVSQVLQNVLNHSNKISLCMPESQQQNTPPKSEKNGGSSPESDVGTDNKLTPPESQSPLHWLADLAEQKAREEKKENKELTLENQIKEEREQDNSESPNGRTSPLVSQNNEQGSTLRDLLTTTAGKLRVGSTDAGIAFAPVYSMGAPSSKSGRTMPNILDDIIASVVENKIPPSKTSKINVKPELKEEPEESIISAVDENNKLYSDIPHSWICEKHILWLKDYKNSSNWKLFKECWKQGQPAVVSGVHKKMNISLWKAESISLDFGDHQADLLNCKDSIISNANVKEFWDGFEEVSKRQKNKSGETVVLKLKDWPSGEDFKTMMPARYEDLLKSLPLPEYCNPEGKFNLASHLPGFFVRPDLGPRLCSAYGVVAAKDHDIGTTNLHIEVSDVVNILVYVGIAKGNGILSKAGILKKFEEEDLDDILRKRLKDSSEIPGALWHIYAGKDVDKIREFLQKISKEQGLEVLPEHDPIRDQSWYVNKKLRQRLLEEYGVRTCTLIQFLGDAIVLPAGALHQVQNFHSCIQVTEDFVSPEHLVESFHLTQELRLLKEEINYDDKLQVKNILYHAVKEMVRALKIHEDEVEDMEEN
UniProt Q9Y2K7: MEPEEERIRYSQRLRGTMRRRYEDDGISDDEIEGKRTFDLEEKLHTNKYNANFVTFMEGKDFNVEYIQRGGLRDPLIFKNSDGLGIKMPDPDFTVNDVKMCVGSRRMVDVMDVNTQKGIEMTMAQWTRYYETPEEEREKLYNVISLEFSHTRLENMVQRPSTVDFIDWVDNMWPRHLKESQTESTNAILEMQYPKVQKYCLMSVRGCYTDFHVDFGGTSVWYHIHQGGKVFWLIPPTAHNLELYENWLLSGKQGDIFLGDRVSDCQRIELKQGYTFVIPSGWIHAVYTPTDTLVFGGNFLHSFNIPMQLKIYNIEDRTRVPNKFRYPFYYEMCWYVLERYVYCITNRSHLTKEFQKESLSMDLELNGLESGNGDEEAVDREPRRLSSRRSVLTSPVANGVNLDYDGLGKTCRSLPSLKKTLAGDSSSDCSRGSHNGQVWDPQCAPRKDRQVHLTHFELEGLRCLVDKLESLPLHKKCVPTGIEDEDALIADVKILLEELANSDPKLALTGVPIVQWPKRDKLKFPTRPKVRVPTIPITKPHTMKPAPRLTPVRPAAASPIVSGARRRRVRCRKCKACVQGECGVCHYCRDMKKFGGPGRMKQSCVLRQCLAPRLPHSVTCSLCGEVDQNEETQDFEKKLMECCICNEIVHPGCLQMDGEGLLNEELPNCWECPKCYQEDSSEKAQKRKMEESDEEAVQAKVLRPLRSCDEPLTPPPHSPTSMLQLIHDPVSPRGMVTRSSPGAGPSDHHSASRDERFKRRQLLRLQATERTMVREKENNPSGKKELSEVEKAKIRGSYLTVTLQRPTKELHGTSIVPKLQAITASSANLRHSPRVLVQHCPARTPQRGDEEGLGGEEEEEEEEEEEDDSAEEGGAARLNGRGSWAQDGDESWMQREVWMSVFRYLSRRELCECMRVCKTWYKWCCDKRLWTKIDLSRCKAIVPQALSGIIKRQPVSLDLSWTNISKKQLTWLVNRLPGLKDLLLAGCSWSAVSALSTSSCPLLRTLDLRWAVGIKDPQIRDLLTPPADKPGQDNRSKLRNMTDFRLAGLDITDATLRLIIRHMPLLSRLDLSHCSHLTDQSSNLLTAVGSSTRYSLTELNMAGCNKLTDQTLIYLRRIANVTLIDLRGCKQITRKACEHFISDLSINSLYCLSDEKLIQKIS
UniProt O60674: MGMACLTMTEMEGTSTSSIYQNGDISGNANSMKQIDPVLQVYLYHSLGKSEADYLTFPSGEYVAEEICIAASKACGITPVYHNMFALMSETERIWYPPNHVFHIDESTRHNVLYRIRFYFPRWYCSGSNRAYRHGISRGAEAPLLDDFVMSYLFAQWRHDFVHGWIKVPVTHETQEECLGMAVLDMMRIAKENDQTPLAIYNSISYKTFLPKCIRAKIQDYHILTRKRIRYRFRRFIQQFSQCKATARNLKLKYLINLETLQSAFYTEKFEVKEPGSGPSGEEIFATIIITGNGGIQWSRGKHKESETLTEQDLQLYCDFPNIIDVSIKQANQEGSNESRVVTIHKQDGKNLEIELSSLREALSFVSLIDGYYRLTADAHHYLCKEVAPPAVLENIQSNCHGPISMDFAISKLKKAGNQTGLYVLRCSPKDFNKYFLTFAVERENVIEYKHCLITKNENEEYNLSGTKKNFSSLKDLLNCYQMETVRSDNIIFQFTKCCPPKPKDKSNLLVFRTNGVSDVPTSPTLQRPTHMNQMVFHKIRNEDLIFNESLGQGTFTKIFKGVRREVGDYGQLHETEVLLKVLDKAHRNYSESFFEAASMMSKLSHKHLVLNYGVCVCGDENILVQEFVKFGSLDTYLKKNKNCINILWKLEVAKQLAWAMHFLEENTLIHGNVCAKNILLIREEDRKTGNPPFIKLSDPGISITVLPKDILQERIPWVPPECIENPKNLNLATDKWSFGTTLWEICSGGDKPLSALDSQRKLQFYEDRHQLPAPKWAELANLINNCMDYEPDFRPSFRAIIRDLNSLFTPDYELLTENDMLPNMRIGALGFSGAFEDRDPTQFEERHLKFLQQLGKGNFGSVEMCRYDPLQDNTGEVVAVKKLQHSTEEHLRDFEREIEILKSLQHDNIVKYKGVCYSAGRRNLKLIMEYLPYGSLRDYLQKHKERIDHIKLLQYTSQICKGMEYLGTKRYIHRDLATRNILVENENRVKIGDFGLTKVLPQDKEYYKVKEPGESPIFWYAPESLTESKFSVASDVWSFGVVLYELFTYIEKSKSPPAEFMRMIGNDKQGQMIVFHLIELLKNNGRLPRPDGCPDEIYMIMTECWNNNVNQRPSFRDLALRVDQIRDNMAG
UniProt Q63ZY3: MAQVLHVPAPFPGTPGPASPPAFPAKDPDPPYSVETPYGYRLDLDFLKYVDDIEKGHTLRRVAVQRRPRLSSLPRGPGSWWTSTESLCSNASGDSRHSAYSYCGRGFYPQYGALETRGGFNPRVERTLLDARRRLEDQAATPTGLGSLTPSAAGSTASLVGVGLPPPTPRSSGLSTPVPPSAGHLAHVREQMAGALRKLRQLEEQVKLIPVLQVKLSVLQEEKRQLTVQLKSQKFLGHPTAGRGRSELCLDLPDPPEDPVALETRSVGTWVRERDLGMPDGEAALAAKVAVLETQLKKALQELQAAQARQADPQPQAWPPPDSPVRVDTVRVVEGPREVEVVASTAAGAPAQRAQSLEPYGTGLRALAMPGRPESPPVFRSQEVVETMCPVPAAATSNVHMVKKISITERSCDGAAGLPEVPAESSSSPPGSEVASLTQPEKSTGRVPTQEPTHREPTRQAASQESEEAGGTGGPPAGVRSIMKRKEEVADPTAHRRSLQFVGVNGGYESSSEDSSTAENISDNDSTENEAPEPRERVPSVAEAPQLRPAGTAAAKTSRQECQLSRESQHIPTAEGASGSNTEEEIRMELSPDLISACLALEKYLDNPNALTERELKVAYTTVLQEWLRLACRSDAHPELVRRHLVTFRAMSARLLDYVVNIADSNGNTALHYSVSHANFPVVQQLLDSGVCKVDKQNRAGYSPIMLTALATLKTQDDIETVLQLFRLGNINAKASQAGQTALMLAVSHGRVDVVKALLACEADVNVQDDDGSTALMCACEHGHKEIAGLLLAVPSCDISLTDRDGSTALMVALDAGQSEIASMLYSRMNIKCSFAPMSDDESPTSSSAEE
UniProt Q9H8E8: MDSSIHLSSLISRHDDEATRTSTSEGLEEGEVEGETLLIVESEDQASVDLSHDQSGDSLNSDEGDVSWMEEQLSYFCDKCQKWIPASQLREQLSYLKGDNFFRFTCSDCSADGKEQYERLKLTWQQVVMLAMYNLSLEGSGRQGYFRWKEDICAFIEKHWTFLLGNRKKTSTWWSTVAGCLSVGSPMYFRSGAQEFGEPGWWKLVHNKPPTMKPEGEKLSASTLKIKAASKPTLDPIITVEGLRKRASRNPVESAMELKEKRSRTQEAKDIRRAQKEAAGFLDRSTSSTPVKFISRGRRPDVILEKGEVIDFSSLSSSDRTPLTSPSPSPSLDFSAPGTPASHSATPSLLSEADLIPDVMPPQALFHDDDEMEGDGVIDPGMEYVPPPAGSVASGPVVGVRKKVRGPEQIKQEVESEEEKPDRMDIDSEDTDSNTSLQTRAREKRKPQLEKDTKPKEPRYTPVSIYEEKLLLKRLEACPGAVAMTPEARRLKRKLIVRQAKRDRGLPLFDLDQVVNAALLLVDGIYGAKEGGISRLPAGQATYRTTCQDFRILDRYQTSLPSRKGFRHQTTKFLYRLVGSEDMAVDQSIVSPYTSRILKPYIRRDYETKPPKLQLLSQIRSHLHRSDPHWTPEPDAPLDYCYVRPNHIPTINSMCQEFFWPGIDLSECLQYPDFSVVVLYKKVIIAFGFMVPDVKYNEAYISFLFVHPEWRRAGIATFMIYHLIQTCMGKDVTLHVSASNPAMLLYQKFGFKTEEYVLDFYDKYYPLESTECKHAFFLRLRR

compound: Cc1cc(ccc1-c1ccccc1)C(=O)N1CCCN(CC1)C(=O)CCl [compound 10]; assay: probe-labelled cysteine peptide fold change vs DMSO (competition) (log2 fold change); higher = less target engagement (more negative = stronger competition); details: 10 µM; THP-1; incubation time: 4 h
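Note: competitive profiling in live THP-1 cells: cysteine peptides tagged with an iodoacetamide desthiobiotin (IA-DTB) probe, intensity after compound treatment relative to DMSO-treated cells.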

Row | Target | probe-labelled cysteine peptide fold change
1 | ITPR1_Q14643_1424_VVTHEDCIPEVK (UniProt Q14643) | 0.131
2 | KDSR_Q06136_121_LGPVDMLVNCAGMAVSGK (UniProt Q06136) | 0.149
3 | KHSRP_Q92945_296_VQQACEMVMDILR (UniProt Q92945) | -0.058
4 | KEAP1_Q14145_489_LNSAECYYPER (UniProt Q14145) | 0.272
5 | KAT2B_Q92831_100_LGVYSACK (UniProt Q92831) | 0.153
6 | KAT2A_Q92830_695_VYPGLSCFK (UniProt Q92830) | -0.151
7 | JMY_Q8N9B5_547_CEELLLTAQLESIKR (UniProt Q8N9B5) | 0.107
8 | JMJD1C_Q15652_990_DCHLHR (UniProt Q15652) | -0.57
9 | KIF1BP_Q96EK5_371_AVQFGTGELCDAISAVEEK (UniProt Q96EK5) | -0.257
10 | KDM1A_O60341_360_CPLYEANGQAVPK (UniProt O60341) | -0.23
11 | IWS1_Q96ST2_749_ALRPGDPGFCAR (UniProt Q96ST2) | -0.224
12 | KEAP1_Q14145_226_QEEFFNLSHCQLVTLISR (UniProt Q14145) | 0.249
13 | KAT8_Q9H7Z6_442_KPPITVDSVCLK (UniProt Q9H7Z6) | 0.252
14 | KDM4A_O75164_844+847_TAGCCVQCSHGR (UniProt O75164) | 0.135
15 | KIF13B_Q9NQT8_773_DLYQEWKECEEDNPVIR (UniProt Q9NQT8) | -0.183
16 | KIF22_Q14807_201_VLDLLDPASGDLVIREDCR (UniProt Q14807) | -0.209
17 | KDM2B_Q8NHM5_699_FNLMLMECSICNEIIHPGCLK (UniProt Q8NHM5) | 0.00171
18 | KDM2A_Q9Y2K7_1104_YSLTELNMAGCNK (UniProt Q9Y2K7) | 0.268
19 | ITPR1_Q14643_253_FLTCDEHR (UniProt Q14643) | 0.0624

Row | Target | probe-labelled cysteine peptide fold change
20 | KDM5B_Q9UGL1_1221_IWLCPHCR (UniProt Q9UGL1) | -0.251
21 | KDM3B_Q7LBC6_1357_ACNLTDTQK (UniProt Q7LBC6) | -0.781
22 | ITPR1_Q14643_326_HLATGHYLAAEVDPDFEEECLEFQPSVDPDQDASR (UniProt Q14643) | -0.321
23 | JAK2_O60674_961_LLQYTSQICK (UniProt O60674) | -0.135
24 | KIF11_P52732_25_CRPFNLAER (UniProt P52732) | 0.108
25 | KATNB1_Q9BVA0_43_LLATGGDDCR (UniProt Q9BVA0) | 0.0377
26 | KANK1_Q14678_1292_LLLAQPGCNGHLEDNDGSTALSIALEAGHK (UniProt Q14678) | 0.314
27 | KHNYN_O15037_46_DCPDNPHIWLQLEGPK (UniProt O15037) | -0.0262
28 | KDM2B_Q8NHM5_770_RSECEEAPR (UniProt Q8NHM5) | -0.00274
29 | KIF13B_Q9NQT8_773_ECEEDNPVIR (UniProt Q9NQT8) | -0.138
30 | KIF22_Q14807_508_ENHCPTMLRPLSHR (UniProt Q14807) | -0.0544
31 | KANK2_Q63ZY3_389_SQEVVETMCPVPAAATSNVHMVK (UniProt Q63ZY3) | -0.23
32 | ITPR1_Q14643_1531_VYHCNWLMPSQK (UniProt Q14643) | -0.158
33 | KIF13B_Q9NQT8_1234_AEASWDSAVHGCPQLSR (UniProt Q9NQT8) | 0.0263
34 | KIF14_Q15058_508_IHDLLVCK (UniProt Q15058) | -0.0541
35 | KDSR_Q06136_245_LISETTSVCKPEQVAK (UniProt Q06136) | -0.219
36 | KIF11_P52732_43_ASAHSIVECDPVRK (UniProt P52732) | -0.00202
37 | IVD_P26440_261_GSNTCELIFEDCK (UniProt P26440) | 0.0481
38 | KAT14_Q9H8E8_478_RLEACPGAVAMTPEAR (UniProt Q9H8E8) | -0.0452

same assay, conditions: 50 µM; THP-1; incubation time: 4 h

Row | Target | probe-labelled cysteine peptide fold change
39 | ITPR1_Q14643_1424_VVTHEDCIPEVK (UniProt Q14643) | 0.146
40 | KDSR_Q06136_121_LGPVDMLVNCAGMAVSGK (UniProt Q06136) | 0.0187
41 | KHSRP_Q92945_296_VQQACEMVMDILR (UniProt Q92945) | 0.0234
42 | KEAP1_Q14145_489_LNSAECYYPER (UniProt Q14145) | 0.365
43 | KAT2B_Q92831_100_LGVYSACK (UniProt Q92831) | -0.0935
44 | KAT2A_Q92830_695_VYPGLSCFK (UniProt Q92830) | -0.549
45 | JMY_Q8N9B5_547_CEELLLTAQLESIKR (UniProt Q8N9B5) | 0.0065
46 | JMJD1C_Q15652_990_DCHLHR (UniProt Q15652) | -0.573
47 | KIF1BP_Q96EK5_371_AVQFGTGELCDAISAVEEK (UniProt Q96EK5) | -0.052
48 | KDM1A_O60341_360_CPLYEANGQAVPK (UniProt O60341) | 0.0513
49 | IWS1_Q96ST2_749_ALRPGDPGFCAR (UniProt Q96ST2) | -0.474
50 | KEAP1_Q14145_226_QEEFFNLSHCQLVTLISR (UniProt Q14145) | 0.138
51 | KAT8_Q9H7Z6_442_KPPITVDSVCLK (UniProt Q9H7Z6) | 0.135
52 | KDM4A_O75164_844+847_TAGCCVQCSHGR (UniProt O75164) | 0.0613
53 | KIF13B_Q9NQT8_773_DLYQEWKECEEDNPVIR (UniProt Q9NQT8) | -0.526
54 | KIF22_Q14807_201_VLDLLDPASGDLVIREDCR (UniProt Q14807) | -0.539
55 | KDM2B_Q8NHM5_699_FNLMLMECSICNEIIHPGCLK (UniProt Q8NHM5) | 0.0507
56 | KDM2A_Q9Y2K7_1104_YSLTELNMAGCNK (UniProt Q9Y2K7) | 0.166
57 | ITPR1_Q14643_253_FLTCDEHR (UniProt Q14643) | 0.337

Row | Target | probe-labelled cysteine peptide fold change
58 | KDM5B_Q9UGL1_1221_IWLCPHCR (UniProt Q9UGL1) | -0.187
59 | KDM3B_Q7LBC6_1357_ACNLTDTQK (UniProt Q7LBC6) | -0.521
60 | ITPR1_Q14643_326_HLATGHYLAAEVDPDFEEECLEFQPSVDPDQDASR (UniProt Q14643) | 0.0228
61 | JAK2_O60674_961_LLQYTSQICK (UniProt O60674) | 0.0113
62 | KIF11_P52732_25_CRPFNLAER (UniProt P52732) | -0.0649
63 | KATNB1_Q9BVA0_43_LLATGGDDCR (UniProt Q9BVA0) | -0.00712
64 | KANK1_Q14678_1292_LLLAQPGCNGHLEDNDGSTALSIALEAGHK (UniProt Q14678) | 0.546
65 | KHNYN_O15037_46_DCPDNPHIWLQLEGPK (UniProt O15037) | -0.604
66 | KDM2B_Q8NHM5_770_RSECEEAPR (UniProt Q8NHM5) | 0.204
67 | KIF13B_Q9NQT8_773_ECEEDNPVIR (UniProt Q9NQT8) | 0.165
68 | KIF22_Q14807_508_ENHCPTMLRPLSHR (UniProt Q14807) | -0.152
69 | KANK2_Q63ZY3_389_SQEVVETMCPVPAAATSNVHMVK (UniProt Q63ZY3) | -0.183
70 | ITPR1_Q14643_1531_VYHCNWLMPSQK (UniProt Q14643) | 0.328
71 | KIF13B_Q9NQT8_1234_AEASWDSAVHGCPQLSR (UniProt Q9NQT8) | -0.115
72 | KIF14_Q15058_508_IHDLLVCK (UniProt Q15058) | 0.0888
73 | KDSR_Q06136_245_LISETTSVCKPEQVAK (UniProt Q06136) | -0.142
74 | KIF11_P52732_43_ASAHSIVECDPVRK (UniProt P52732) | 0.0726
75 | IVD_P26440_261_GSNTCELIFEDCK (UniProt P26440) | 0.468
76 | KAT14_Q9H8E8_478_RLEACPGAVAMTPEAR (UniProt Q9H8E8) | 0.144
